Test results as given in publication PMC12040169 (PLOS Biology, 2025).
The list shows a part of the results.

system: T1, CTL2-GFP (C. trachomatis L2/434/Bu, GFP-expressing); set-up: species or system HeLa; Intracellular C. trachomatis growth in HeLa cells, bulk GFP fluorescence relative to DMSO; details: bulk GFP, single well; 28.5 h, 10 µM; inhibitor
T1 construct: L2/434/Bu, GFP-expressing

In order of falling “% of control remaining” value:
1. CSCCC(=O)NC1CCCc2nc(N3CCC(CO)CC3)ncc21 (stereo not drawn) [CBK306782]  175.586%
2. Cc1ccc2c(c1)C(=O)CC1(CC3CCC1N3C(=O)C(C)C)O2 (stereo not drawn) [CBK284468]  167.83%
3. C#CCNC(=O)CC[C@H]1CNC(=O)[C@@H]2[C@@H](CCN2Cc2cccs2)N1C [CBK289033]  165.986%
4. COc1ccc(CCCC(=O)NC2CCCCC2C)cc1 (stereo not drawn) [CBK026124]  163.349%
5. O=C(CSc1nnc(-c2ccco2)o1)c1ccc2c(c1)OCCO2 [CBK266387]  162.09%
6. CNc1nc(N)nc(OCC(F)(F)F)n1 [CBK028082]  158.811%
7. CC(C)CC(=O)Nc1nc(OCC(F)(F)F)cnc1-c1ccc(Cl)cc1Cl [CBK145356]  142.106%
8. Cn1nccc1CCNC(=O)c1cccc(S(=O)(=O)N2CCCCC2)c1 [CBK304363]  139.09%
9. Cc1ccc2nc(-c3ccccc3)cc(C(=O)NCCCn3ccnc3)c2c1 [CBK268526]  138.892%
10. CC(C)C(=O)N1CCC2(C/C=C/C[C@H]3COCC[C@H]3NC(=O)CNC2=O)CC1 [CBK292157]  138.208%
11. CS(=O)(=O)c1ccc2nc(Nc3nc4c(F)cccc4s3)sc2c1 [CBK287478]  137.636%
12. O=C1c2ccccc2NC(C(=O)O)(c2ccccc2)N1c1ccccc1Cl (stereo not drawn) [CBK287169]  137.079%
13. CCOC(=O)c1cnn(C2CCCN(Cc3ccsc3)C2)c1 (stereo not drawn) [CBK305112]  136.411%
14. CC(=O)Nc1ccc([C@@H](O)[C@H]2COCC(=O)N2Cc2ccc(C(F)(F)F)cc2)cc1 [CBK289678]  135.009%
15. COc1ccc(CNC(=O)c2cn[nH]c2-c2ccccc2)c(OC)c1 [CBK288057]  134.695%
16. COc1ccc2sc(Nc3ccc(F)cc3)nc2c1 [CBK287641]  132.503%
17. COc1cc(C(c2c[nH]c3ccccc23)c2c[nH]c3ccccc23)ccc1OCC(=O)O [CBK265717]  129.975%
18. Cn1ccnc1C1(O)CC2CCC(C1)N2C(=O)c1cccs1 (stereo not drawn) [CBK284088]  129.909%
19. CCCC(=O)NCc1ccc(-c2cc(CN(C)C)n(C)n2)cc1 [CBK282007]  129.807%
20. O=C(Cc1ccccc1)NC(Cc1ccc(Cl)cc1)C(=O)O (stereo not drawn) [CBK286976]  128.398%
21. CC(C)NC(=O)c1ccccc1Br [CBK026505]  126.541%
22. O=C(O)C1C2C=CC3(CN(C/C=C/c4ccccc4)C(=O)C13)O2 (stereo not drawn) [CBK286946]  125.359%
23. CNC(=O)NC(=O)CN1CCC(CNc2ncccc2C#N)C1 (stereo not drawn) [CBK306126]  123.408%
24. O=C(CC1S/C(=N/N=C/c2ccc(-c3cc([N+](=O)[O-])ccc3Cl)o2)NC1=O)Nc1ccccc1 (stereo not drawn) [CBK264592]  121.907%
25. CCC(C)c1ccccc1NC(=O)c1cc(=O)[nH]c2ccccc12 (stereo not drawn) [CBK297516]  118.783%
26. CCc1nnc(NS(=O)(=O)c2ccc(Nc3ccc([N+](=O)[O-])c4nonc34)cc2)s1 [CBK261442]  117.213%
27. CC(C)CC(=O)N1CCCC(n2c(=O)oc3ccc(Cl)cc32)C1 (stereo not drawn) [CBK282891]  115.779%
28. CCOc1ccccc1OCc1nn2c(-c3ccncc3)nnc2s1 [CBK268535]  114.235%
29. C=C(C)Cn1c(SC(C)C)nnc1-c1cccnc1 [CBK200073]  113.278%
30. CN1CCN(CC(=O)Nc2sc3c(c2C(=O)Nc2ccccc2)CCCC3)CC1 [CBK268431]  110.255%
31. COc1ccc(C(NC(=O)C2CCN(C(=O)C(C)(C)C)CC2)c2cnccn2)cc1 (stereo not drawn) [CBK059791]  108.185%
32. FC(F)(F)c1ccnc(OCc2cccnc2)n1 [CBK115902]  105.288%
33. Cc1cccc(C)c1NC(=O)Cn1nnc(-c2ccc(CN3CCC(C)CC3)cc2)n1 [CBK121194]  105.139%
34. COc1ccc(-c2csc(Nc3ccc(N)cc3)n2)cc1OC [CBK074456]  102.198%
35. CCN(CC)S(=O)(=O)c1cc(C(=O)Nc2ccccc2C(=O)O)c(Cl)cc1Cl [CBK265731]  102.056%
36. COc1ccc(C(=O)NNC(=O)c2cc(OC)cc(OC)c2)cc1 [CBK262616]  100%
37. CCc1oc2ccc(Cl)cc2c1C(=O)CCN1CCCCC1 [CBK009675C]  100%
38. CC(C)C(=O)NC(c1ccco1)c1ccc2cccnc2c1O (stereo not drawn) [CBK263277]  95.0807%
39. CCC1CCc2c(sc(NC(=O)c3cc(-c4ccc(Cl)s4)nc4ccccc34)c2C(N)=O)C1 (stereo not drawn) [CBK262646]  94.7803%
